Experimental findings from article PMC12509916 are described below.

By UniProt entry, the sequences of proteins in these tests, tags left out. Where a name states a change or a piece, a line headed by the entry shows the natural chain unless it says otherwise. Residues count along the entry.
UniProt P41279: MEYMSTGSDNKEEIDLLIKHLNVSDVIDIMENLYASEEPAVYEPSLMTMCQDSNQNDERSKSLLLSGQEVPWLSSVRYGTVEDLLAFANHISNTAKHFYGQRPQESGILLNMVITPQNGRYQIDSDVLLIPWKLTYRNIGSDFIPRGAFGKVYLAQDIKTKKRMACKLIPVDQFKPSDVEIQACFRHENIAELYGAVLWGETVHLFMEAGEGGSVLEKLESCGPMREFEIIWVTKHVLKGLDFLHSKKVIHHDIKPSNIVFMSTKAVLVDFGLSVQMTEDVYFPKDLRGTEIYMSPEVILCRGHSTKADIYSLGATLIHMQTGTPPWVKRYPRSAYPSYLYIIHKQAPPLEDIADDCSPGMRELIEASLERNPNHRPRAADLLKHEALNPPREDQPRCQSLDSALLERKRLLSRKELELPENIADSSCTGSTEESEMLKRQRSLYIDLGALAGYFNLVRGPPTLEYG
GST-TPL2[30-397]: residues 30-397 of P41279
UniProt Q03181: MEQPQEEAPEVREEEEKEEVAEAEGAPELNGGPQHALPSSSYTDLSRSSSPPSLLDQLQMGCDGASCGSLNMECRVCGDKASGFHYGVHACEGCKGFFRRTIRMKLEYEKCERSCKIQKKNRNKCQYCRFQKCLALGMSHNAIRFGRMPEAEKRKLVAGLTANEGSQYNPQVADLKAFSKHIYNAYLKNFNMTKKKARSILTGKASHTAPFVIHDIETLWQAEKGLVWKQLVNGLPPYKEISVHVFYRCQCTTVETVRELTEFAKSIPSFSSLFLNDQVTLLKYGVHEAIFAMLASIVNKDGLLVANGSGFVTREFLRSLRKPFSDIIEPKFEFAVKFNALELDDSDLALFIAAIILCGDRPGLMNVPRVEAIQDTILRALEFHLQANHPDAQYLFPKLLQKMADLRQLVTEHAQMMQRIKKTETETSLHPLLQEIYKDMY

These are yes or no findings as the source states them, for the method shown. For some assays here: In cells and extracts the contact can be indirect. Some results given as binding are weak or reduced against the parent protein; the word gives no strength.

The target of assay [1] is GST-TPL2[30-397] (UniProt P41279). Kind of assay: differential scanning calorimetry (DSC); thermal transition peak of TPL2/PPARD; rightward shift read as binding or complex formation; both purified. On the technique in general: Differential scanning calorimetry records heat flow against a reference as temperature is scanned.
Assay [2] shares this target. As to the kind of experiment: pull-down; in vitro GST pulldown; GST-TPL2[30-397] or GST alone as bait, PPARδ as prey; control reactions lacking PPARδ gave no signal.
The target in assay [3] is endogenous PPARδ (human (endogenous in SCM1)) (UniProt Q03181). Kind of assay: co-IP; SCM1 cells, both proteins endogenous; immunoprecipitation with anti-PPARδ antibody, TPL2 detected by immunoblot; 800 μg total cell lysate, protein A-Sepharose overnight at 4 °C. On the technique in general: In western blotting, separated proteins are transferred to a membrane and probed.

For assay [4], the target named is FLAG-tagged TPL2 (Tumor Progression Locus 2) (UniProt P41279). As to the kind of experiment: co-IP; SCM1/TPL2-2 cells; immunoprecipitation with anti-FLAG antibody, endogenous PPARδ detected by immunoblot; 800 μg total cell lysate, protein A-Sepharose overnight at 4 °C.
Assay [5] deals with HA-tagged PPARδ (peroxisome proliferator-activated receptor delta) (UniProt Q03181). As to the kind of experiment: co-IP; SCM1/TPL2 cells transiently transfected with HA-PPARδ plasmid; immunoprecipitation with anti-HA antibody from 800 μg total cell lysate, protein A-Sepharose overnight at 4 °C, immunoblot; cells treated with hypoxia.

With “PPARδ (in vitro GST pulldown and DSC) (from UniProt Q03181 1-441) (receptor)”, the binding entry with GST-TPL2[30-397] [1] and with GST-TPL2[30-397] [2] was “binds” each time.
Regarding “endogenous TPL2 (from UniProt P41279 1-467) (enzyme)”, the binding result in assay [3] is given as “binds”.
For “endogenous PPARδ (from UniProt Q03181 1-441) (receptor)”, the binding result in assay [4] is recorded as “binds”.
As for “FLAG-tagged TPL2 (Tumor Progression Locus 2) (from UniProt P41279 1-467) (enzyme)”, the binding result in assay [5] was “binds”.
